Data taken from patent US9278994B2, “Short antimicrobial lipopeptides” (Helix BioMedix Inc., priority 2012, dated 2016).
Where two headings read alike, the source gives them in different places. Part of at least one peptide drawing is inferred or uncertain, most often the ends. Some results were stated once for a whole list of compounds, not compound by compound. Where a SMILES comes first, the peptide text is derived from it. [ ]: non-standard residue; d: D form. The star is where a group is joined. Palmitoyl = CCCCCCCCCCCCCCCC(=O)*

How the values were obtained:
P. acnes ATCC11827 = assay: Kill kinetics in PBS; type: cell-based, Propionibacterium acnes; conditions: detection limit 10 CFU/ml
Procedure: (§1) 3. […] The minimal inhibitory concentration (MIC) of each peptide was determined using modified CLSI microtiter broth dilution assay (Methods for Dilution Antimicrobial Susceptibility Tests for Bacteria That Grow Aerobically; Approved Standard—Ninth Edition). An inoculum of 10^5-10^6 colony forming units (CFU)/ml was used or 10^4 CFU/ml for yeast. The MIC value was taken as the lowest peptide concentration at which more than 90% of microbial growth was inhibited after 15 to 20 h of incubation at 37° C. For P. acnes, the incubation was kept under anaerobic condition at 37° C. for 2 weeks before MIC was determined Kill kinetics was performed using a given concentration (about 2-5-fold MIC) of peptide mixed with indicator microorganism. After appropriate dilution the cells were plated on agar plates after defined time intervals and incubated at 37° C. overnight. In the case of P. acnes an extended incubation period was required. The CFU was counted and plotted as survival of bacteria after peptide treatment over time, which indicates the effectiveness of a peptide to kill a microbe.

[1] = tested on: EpiDerm (EPI-200) skin tissue; assay: Skin tissue toxicity, EpiDerm skin model with MTT assay; type: cell-based; conditions: tissue viability (MTT), treated 20 hr
Procedure: 4. Skin tissue toxicity determination. Skin toxicity and compatibility was determined using EpiDerm (EPI-200) skin tissue and MTT Kit (MTT-100) (MatTek, Ashland, Mass.) according to the manufacture's instruction. 1% Triton X-100 and PBS were used as positive (toxic) and negative (non-toxic) control, respectively.
Potential for dermal irritancy of the lipodipeptides was tested using EpiDerm™ Skin Model (MatTek, Ashland, Mass.) in combination with a modified MTT assay. […] EpiDerm™ consists of organized basal, spinous, granular, and cornified layers analogous to those found in vivo. The tissues were treated with each compound at desired concentration for 20 hr.

[2] = tested on: P. acnes, S. aureus, E. coli and C. albicans; assay: MIC / antimicrobial activity; type: cell-based; conditions: for MIC (no detectable MIC / inactive at up to): MH broth, organisms not named in the sentence (Table 1)
Procedure: 2. Bacterial strains and culture conditions. E. coli UB1005, S. aureus SAP0017 (MRSA) and C. albicans 105 were grown in Mueller Hinton (MH) (Difco, BD Biosciences, MD) agar plates and broth (2 g of beef extract, 17.5 g of acid hydrolysis of casein and 1.5 g of starch per liter) at 37° C. unless otherwise indicated. Bacteria from frozen stock were subcultured onto freshly made MH agar plates prior to susceptibility testing. For P. acnes, the bacterium was grown in BBL™ Brain-Heart infusion (Becton, Dickinson & Company, Sparks Md.) broth or agar plates at 37° C. in anaerobic condition generated using a anaerobic jar and AnaeroGen™ (Oxoid, Basingstoke, Hampshire, England).
as §1

S. aureus SAP0017 (MRSA) [3] = type: cell-based, Staphylococcus aureus; conditions: S. aureus in PBS, detection limit 10 CFU/ml
Procedure: as §1

C. albicans 105 = assay: Kill kinetics in PBS; type: cell-based; conditions: detection limit 10 CFU/ml
S. aureus SAP0017 (MRSA) [4] = assay: Kill kinetics in 10% fetal bovine serum; type: cell-based, Staphylococcus aureus; conditions: S. aureus in 10% fetal bovine serum

CCCCCCCCCCCCCCCC(=O)N[C@@H](CCCCN)C(=O)N1CCC[C@H]1C(=O)N[C@@H](CC(C)C)C(N)=O [HB2209, Pal-KPL-NH2] (Palmitoyl-Lys-Pro-Leu-NH2)
survival of microbes (CFU/ml), 0 hr (P. acnes ATCC11827): 750000 CFU/ml | survival of microbes (CFU/ml), 20 min (P. acnes ATCC11827): <10 CFU/ml | survival of microbes (CFU/ml), 1 hr (P. acnes ATCC11827): <10 CFU/ml | survival of microbes (CFU/ml), 2 hr (P. acnes ATCC11827): <10 CFU/ml | survival of microbes (CFU/ml), 3 hr (P. acnes ATCC11827): <10 CFU/ml | Toxicity EpiDerm [1]: > 2000 µg/mL | antimicrobial activity (in words) ([2]; summary of MIC results of Table 1): decent broad spectrum antimicrobial activity | survival of microbes (CFU/ml), 0 hr (S. aureus SAP0017 (MRSA) [3]): 23050000 CFU/ml | survival of microbes (CFU/ml), 20 min (S. aureus SAP0017 (MRSA) [3]): <10 CFU/ml | survival of microbes (CFU/ml), 1 hr (S. aureus SAP0017 (MRSA) [3]): <10 CFU/ml | survival of microbes (CFU/ml), 2 hr (S. aureus SAP0017 (MRSA) [3]): <10 CFU/ml | survival of microbes (CFU/ml), 3 hr (S. aureus SAP0017 (MRSA) [3]): <10 CFU/ml

CC(C)[C@H](NC(=O)[C@@H]1CCCN1C(=O)[C@@H](N)CCCCN)C(=O)O [HB2067, KPV-OH, reference compound] (H-Lys-Pro-Val-OH)
MIC (no detectable MIC / inactive at up to) [2]: > 2000 µg/mL

C[C@@H](O)[C@H](NC(=O)[C@H]1CCCN1C(=O)[C@@H](N)CCCCN)C(N)=O [HB2089, K-dPT-NH2, reference compound] (H-Lys-[dP]-Thr-NH2)
survival of microbes (CFU/ml), 0 hr (P. acnes ATCC11827): 750000 CFU/ml | survival of microbes (CFU/ml), 20 min (P. acnes ATCC11827): 750000 CFU/ml | survival of microbes (CFU/ml), 1 hr (P. acnes ATCC11827): 750000 CFU/ml | survival of microbes (CFU/ml), 2 hr (P. acnes ATCC11827): 750000 CFU/ml | survival of microbes (CFU/ml), 3 hr (P. acnes ATCC11827): 750000 CFU/ml | MIC (no detectable MIC / inactive at up to) [2]: > 2000 µg/mL | survival of microbes (CFU/ml), 0 hr (C. albicans 105; 0 hr): 1300000 CFU/ml | survival of microbes (CFU/ml), 20 min (C. albicans 105; 20 min): 1300000 CFU/ml | survival of microbes (CFU/ml), 1 hr (C. albicans 105; 1 hr): 1300000 CFU/ml | survival of microbes (CFU/ml), 2 hr (C. albicans 105; 2 hr): 1300000 CFU/ml | survival of microbes (CFU/ml), 3 hr (C. albicans 105; 3 hr): 1300000 CFU/ml | survival of microbes (CFU/ml), 0 hr (S. aureus SAP0017 (MRSA) [3]): 23050000 CFU/ml | survival of microbes (CFU/ml), 20 min (S. aureus SAP0017 (MRSA) [3]): 23050000 CFU/ml | survival of microbes (CFU/ml), 1 hr (S. aureus SAP0017 (MRSA) [3]): 23050000 CFU/ml | survival of microbes (CFU/ml), 2 hr (S. aureus SAP0017 (MRSA) [3]): 23050000 CFU/ml | survival of microbes (CFU/ml), 3 hr (S. aureus SAP0017 (MRSA) [3]): 23050000 CFU/ml | survival of microbes (CFU/ml), 0 hr (S. aureus SAP0017 (MRSA) [4]; 0 hr): 30900000 CFU/ml | survival of microbes (CFU/ml), 2 hr (S. aureus SAP0017 (MRSA) [4]; 2 hr): 30900000 CFU/ml | survival of microbes (CFU/ml), 3 hr (S. aureus SAP0017 (MRSA) [4]; 3 hr): 30900000 CFU/ml | survival of microbes (CFU/ml), 5 hr (S. aureus SAP0017 (MRSA) [4]; 5 hr): 30900000 CFU/ml | survival of microbes (CFU/ml), 6 hr (S. aureus SAP0017 (MRSA) [4]; 6 hr): 30900000 CFU/ml

CCCCCCCCCCCCCCCC(=O)N[C@@H](CCCCN)C(=O)N1CCC[C@H]1C(=O)N[C@H](C(N)=O)C(C)C [HB2180, Pal-KPV-NH2] (Palmitoyl-Lys-Pro-Val-NH2)
survival of microbes (CFU/ml), 0 hr (P. acnes ATCC11827): 750000 CFU/ml | survival of microbes (CFU/ml), 20 min (P. acnes ATCC11827): <10 CFU/ml | survival of microbes (CFU/ml), 1 hr (P. acnes ATCC11827): <10 CFU/ml | survival of microbes (CFU/ml), 2 hr (P. acnes ATCC11827): <10 CFU/ml | survival of microbes (CFU/ml), 3 hr (P. acnes ATCC11827): <10 CFU/ml | Toxicity EpiDerm [1]: > 2000 µg/mL | survival of microbes (CFU/ml), 0 hr (S. aureus SAP0017 (MRSA) [3]): 23050000 CFU/ml | survival of microbes (CFU/ml), 20 min (S. aureus SAP0017 (MRSA) [3]): <10 CFU/ml | survival of microbes (CFU/ml), 1 hr (S. aureus SAP0017 (MRSA) [3]): <10 CFU/ml | survival of microbes (CFU/ml), 2 hr (S. aureus SAP0017 (MRSA) [3]): <10 CFU/ml | survival of microbes (CFU/ml), 3 hr (S. aureus SAP0017 (MRSA) [3]): <10 CFU/ml
